Assay results as given in article PMC5833831.
Results are given in words; binding and its absence hold for the method and conditions named. Binding seen in cells or lysates may run through a third protein. Binding can be weak; no strength is given.

Chains of the proteins cited; added tags and fusions are not shown. Lines headed by an entry give the natural chain unless they say otherwise; changes in a name come on top. Residues count along the entry.
UniProt O95863: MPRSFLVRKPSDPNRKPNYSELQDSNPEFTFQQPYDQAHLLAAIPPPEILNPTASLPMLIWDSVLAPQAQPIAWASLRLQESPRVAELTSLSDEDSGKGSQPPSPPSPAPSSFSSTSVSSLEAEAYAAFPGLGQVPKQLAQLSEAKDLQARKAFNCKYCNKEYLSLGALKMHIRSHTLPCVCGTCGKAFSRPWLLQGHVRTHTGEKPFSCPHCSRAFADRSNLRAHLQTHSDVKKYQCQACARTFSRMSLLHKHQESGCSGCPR
GFP-SNAI1-NT: residues 1-151 of O95863

How the values were obtained:
[1] = biological target: GFP-SNAI1-NT (aa:1–151) (UniProt O95863); experiment: co-IP; GFP-tagged truncations of PPIL2 or of SNAI1 expressed in T47D cells (Fig. 3e, f)
[2] = biological target: Flag-SNAI1 (pcDNA3.1-3×Flag-SNAI1) (UniProt O95863); experiment: co-IP; overexpressed HA-PPIL2 and Flag-SNAI1; ZR-75-30 cells by the text, T47D cells by the legend (Fig. 3a, b)

binding [1]: binds
binding [2]: binds
Substance: HA-PPIL2 (peptidylprolyl isomerase (cyclophilin)-like 2) (from UniProt Q13356-2) (enzyme)
